# Measurements: patent US20070256193A1
# These are yes or no findings as the source states them, for the method shown. Some entries that bind do so weakly or less than the wild type. For part of these data: Tags and fused reporters may be left off the sequences shown.
# B1: defense-associated protein phosphatase type 2C one (DAPP1), as prey clone in the yeast two-hybrid system (enzyme)
# chain: MGKFCCFTSASEVVGGQSSSRSGKGRSDEGMIKYGFSLVKGKANHPMEDYHVANFINIQDHELGLFAIYDGHMGDSVPAYLQKRLFSNILKEGEFWVDPRRSIAKAYEKTDQAILSNSSDLGRGGSTAVTAILINGRKLWIANVGDSRAVLSHGGAITQMSTDHEPRTERSSIEDRGGFVSNLPGDVPRVNGQLAVSRAFGDKGLKTHLSSEPDIKEATVDSQTDVLLLASDGIWKVMTNEEAMEIARRVKDPQKAAKELTAEALRRESKDDISCVVVRFR
# B2: 14-3-3a, in the yeast two-hybrid system (protein, Arabidopsis, UniProt P48349 1-248, looked up)
# chain: MAATLGRDQYVYMAKLAEQAERYEEMVQFMEQLVTGATPAEELTVEERNLLSVAYKNVIGSLRAAWRIVSSIEQKEESRKNDEHVSLVKDYRSKVESELSSVCSGILKLLDSHLIPSAGASESKVFYLKMKGDYHRYMAEFKSGDERKTAAEDTMLAYKAAQDIAAADMAPTHPIRLGLALNFSVFYYEILNSSDKACNMAKQAFEEAIAELDTLGEESYKDSTLIMQLLRDNLTLWTSDMQEQMDEA
# B3: YFP^N:DAPP1 (amino-terminal yellow fluorescent protein fragment fused to DAPP1) (protein, not shown: large carriers)
# chain: MGKFCCFTSASEVVGGQSSSRSGKGRSDEGMIKYGFSLVKGKANHPMEDYHVANFINIQDHELGLFAIYDGHMGDSVPAYLQKRLFSNILKEGEFWVDPRRSIAKAYEKTDQAILSNSSDLGRGGSTAVTAILINGRKLWIANVGDSRAVLSHGGAITQMSTDHEPRTERSSIEDRGGFVSNLPGDVPRVNGQLAVSRAFGDKGLKTHLSSEPDIKEATVDSQTDVLLLASDGIWKVMTNEEAMEIARRVKDPQKAAKELTAEALRRESKDDISCVVVRFR
# Tests used:
# [1] = biological target: T1, RPW8.2, as bait in the yeast two-hybrid system (Arabidopsis) (UniProt Q9C5Z6); assay: yeast two-hybrid (Matchmaker LexA), Arabidopsis cDNA library screened with RPW8.2 as bait
# T1 sequence (looked up): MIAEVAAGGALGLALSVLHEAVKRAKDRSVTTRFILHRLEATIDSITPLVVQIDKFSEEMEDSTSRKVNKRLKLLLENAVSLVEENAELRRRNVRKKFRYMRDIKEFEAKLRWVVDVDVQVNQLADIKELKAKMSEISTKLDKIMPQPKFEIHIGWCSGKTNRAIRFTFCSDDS
# [2] = biological target: T2, RPW8.1, in the yeast two-hybrid system (Arabidopsis) (UniProt Q9C5Z7); assay: yeast two-hybrid
# T2 sequence (looked up): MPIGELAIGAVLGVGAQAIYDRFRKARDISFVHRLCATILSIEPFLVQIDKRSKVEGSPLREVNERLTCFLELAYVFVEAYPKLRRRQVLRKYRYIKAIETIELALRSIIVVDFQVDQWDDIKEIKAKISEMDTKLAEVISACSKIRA
# [3] = biological target: T3, RPW8 (RPW8.1 or RPW8.2 not specified) (Arabidopsis) (UniProt Q9C5Z6); assay: yeast two-hybrid screen for RPW8-interacting partners
# T3 sequence: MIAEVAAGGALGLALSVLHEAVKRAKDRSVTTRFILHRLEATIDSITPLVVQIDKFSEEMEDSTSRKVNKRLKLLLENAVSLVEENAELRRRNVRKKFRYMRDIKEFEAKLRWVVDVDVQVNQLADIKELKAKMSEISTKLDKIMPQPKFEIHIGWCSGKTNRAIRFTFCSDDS
# [4] = biological target: T3, RPW8 (RPW8.1 or RPW8.2 not specified) (Arabidopsis); assay: yeast two-hybrid
# [5] = biological target: T4, YFP^C:14-3-3a (carboxyl-terminal yellow fluorescent protein fragment fused to 14-3-3a) (Arabidopsis) (UniProt P48349); assay: bimolecular fluorescence complementation (BiFC) in leaves of a transgenic Arabidopsis line
# T4 sequence (looked up): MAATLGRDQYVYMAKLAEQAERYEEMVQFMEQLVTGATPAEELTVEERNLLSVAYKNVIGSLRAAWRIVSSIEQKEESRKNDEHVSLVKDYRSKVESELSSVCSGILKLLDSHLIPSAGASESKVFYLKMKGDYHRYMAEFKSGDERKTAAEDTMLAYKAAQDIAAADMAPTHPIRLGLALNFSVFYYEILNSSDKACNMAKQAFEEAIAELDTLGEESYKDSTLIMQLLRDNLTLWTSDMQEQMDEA
# [6] = biological target: T4, YFP^C:14-3-3a (carboxyl-terminal yellow fluorescent protein fragment fused to 14-3-3a) (Arabidopsis); assay: bimolecular fluorescence complementation (BiFC), YFP fluorescence
binder,measurement,setting,value
B1,binding,[1],binds
same,binding,[2],binds
same,binding,[3],binds
B2,binding,[4],binds
B3,binding,[5],binds
same,binding,[6],binds
